The reference is the same well before dosing, and untreated signal decays as well.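 Labels refer to human fibroblasts, largely primary: uterine (C12385, HUF), lung (H6013), bone (Hs27A), adrenal (HADF), skin (WS1), plus mammary HMF and breast cancer-associated Hs343T. Cancer lines are basal-like or mesenchymal-like triple-negative breast cancer. The paper counts as hits responses shifting over 3x the replicate standard deviation. The tissue of the other fibroblasts is not given here.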
Test system: MDAMB468
Experiment: relative JC-1 red fluorescence (viability) vs pre-drug, coculture with fibroblast (fraction); higher = more viable cancer cells
Method: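 JC-1 labelled TNBC cells cocultured 1:1 (1,500 cells each) with CellTrace Violet stained primary or stromal fibroblasts in 384-well plates in FluoroBrite medium, treated with one of 42 anticancer drugs at 0.1, 1, 10 or 100 uM. JC-1 red fluorescence (mitochondrial integrity in cancer cells only) was read by plate reader every 8 h for 72 h. Values are normalised to each well's pre-drug value. The stock of one drug was tenfold lower, so its dose labels may be too high.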

C=C1C[C@@H]2[C@H](CC[C@]3(C)C(=O)CC[C@@H]23)[C@@]2(C)C=CC(=O)C=C12 [Exemestane]
relative JC-1 red fluorescence
Settings | 8 h | 16 h | 24 h | 32 h | 40 h | 48 h | 56 h | 64 h | 72 h
0.1 µM, coculture fibroblast: C12385 | 0.883 | 0.819 | 0.776 | 0.727 | 0.685 | 0.684 | 0.644 | 0.622 | 0.616
0.1 µM, coculture fibroblast: H6013 | 0.897 | 0.809 | 0.789 | 0.798 | 0.7727 | 0.7807 | 0.755 | 0.739 | 0.69
0.1 µM, coculture fibroblast: H6019 | 0.831 | 0.794 | 0.763 | 0.712 | 0.673 | 0.659 | 0.613 | 0.575 | 0.551
0.1 µM, coculture fibroblast: H6076 | 0.93 | 0.906 | 0.866 | 0.884 | 0.814 | 0.815 | 0.78 | 0.768 | 0.818
0.1 µM, coculture fibroblast: H6231 | 0.8202 | 0.959 | 0.866 | 0.818 | 0.769 | 0.745 | 0.686 | 0.652 | 0.63
0.1 µM, coculture fibroblast: HADF | 0.8955 | 0.798 | 0.76 | 0.7386 | 0.6866 | 0.6803 | 0.631 | 0.613 | 0.575
0.1 µM, coculture fibroblast: HCFa | 0.878 | 0.812 | 0.77 | 0.739 | 0.667 | 0.658 | 0.604 | 0.566 | 0.514
0.1 µM, coculture fibroblast: HCPF | 0.8799 | 0.917 | 0.865 | 0.854 | 0.797 | 0.764 | 0.712 | 0.7 | 0.683
0.1 µM, coculture fibroblast: HHSteC | 0.908 | 0.8382 | 0.794 | 0.762 | 0.718 | 0.716 | 0.646 | 0.623 | 0.581
0.1 µM, coculture fibroblast: HMF | 0.8652 | 0.961 | 0.8873 | 0.875 | 0.807 | 0.781 | 0.73 | 0.707 | 0.693
0.1 µM, coculture fibroblast: HPFa | 0.927 | 0.891 | 0.822 | 0.767 | 0.723 | 0.713 | 0.64 | 0.601 | 0.525
0.1 µM, coculture fibroblast: HUF | 0.9206 | 0.8382 | 0.797 | 0.7467 | 0.6999 | 0.671 | 0.6283 | 0.611 | 0.59
0.1 µM, coculture fibroblast: Hs5 | 0.809 | 0.946 | 0.926 | 0.913 | 0.841 | 0.815 | 0.778 | 0.744 | 0.781
0.1 µM, coculture fibroblast: Hs27A | 0.8686 | 0.8034 | 0.7796 | 0.775 | 0.718 | 0.711 | 0.662 | 0.636 | 0.585
0.1 µM, coculture fibroblast: Hs343T | 0.901 | 0.935 | 0.8733 | 0.8472 | 0.7778 | 0.769 | 0.712 | 0.6972 | 0.6789
0.1 µM, coculture fibroblast: WS1 | 0.878 | 0.772 | 0.732 | 0.672 | 0.626 | 0.593 | 0.571 | 0.548 | 0.54
1 µM, coculture fibroblast: C12385 | 0.876 | 0.797 | 0.776 | 0.72 | 0.686 | 0.678 | 0.638 | 0.62 | 0.606
1 µM, coculture fibroblast: H6013 | 0.8788 | 0.8339 | 0.7917 | 0.77 | 0.751 | 0.757 | 0.729 | 0.729 | 0.665
1 µM, coculture fibroblast: H6019 | 0.858 | 0.784 | 0.774 | 0.733 | 0.7014 | 0.6983 | 0.6523 | 0.625 | 0.6004
1 µM, coculture fibroblast: H6076 | 0.902 | 0.855 | 0.8383 | 0.845 | 0.774 | 0.768 | 0.739 | 0.724 | 0.778
1 µM, coculture fibroblast: H6231 | 0.849 | 0.956 | 0.842 | 0.8403 | 0.7767 | 0.766 | 0.711 | 0.68 | 0.667
1 µM, coculture fibroblast: HADF | 0.9062 | 0.822 | 0.776 | 0.768 | 0.7165 | 0.7043 | 0.652 | 0.63 | 0.578
1 µM, coculture fibroblast: HCFa | 0.849 | 0.8386 | 0.779 | 0.755 | 0.697 | 0.689 | 0.636 | 0.596 | 0.536
1 µM, coculture fibroblast: HCPF | 0.868 | 0.92553 | 0.852 | 0.849 | 0.778 | 0.746 | 0.701 | 0.686 | 0.676
1 µM, coculture fibroblast: HHSteC | 0.897 | 0.835 | 0.792 | 0.76 | 0.726 | 0.721 | 0.657 | 0.627 | 0.572
1 µM, coculture fibroblast: HMF | 0.813 | 0.868 | 0.816 | 0.805 | 0.736 | 0.718 | 0.666 | 0.643 | 0.635
1 µM, coculture fibroblast: HPFa | 0.935 | 0.8875 | 0.844 | 0.801 | 0.767 | 0.748 | 0.675 | 0.635 | 0.545
1 µM, coculture fibroblast: HUF | 0.9218 | 0.8309 | 0.7671 | 0.71 | 0.6576 | 0.6209 | 0.5721 | 0.5482 | 0.5259
1 µM, coculture fibroblast: Hs5 | 0.886 | 0.885 | 0.86 | 0.84 | 0.786 | 0.769 | 0.741 | 0.715 | 0.747
1 µM, coculture fibroblast: Hs27A | 0.863 | 0.807 | 0.768 | 0.754 | 0.709 | 0.699 | 0.651 | 0.625 | 0.567
1 µM, coculture fibroblast: Hs343T | 0.901 | 0.929 | 0.8709 | 0.849 | 0.767 | 0.743 | 0.691 | 0.669 | 0.654
1 µM, coculture fibroblast: WS1 | 0.874 | 0.772 | 0.742 | 0.671 | 0.6224 | 0.596 | 0.556 | 0.527 | 0.521
